These are yes or no findings as the source states them, for the method shown. In cells and extracts the contact can be indirect. A result given as binding can be weak or reduced; the word gives no strength. Sequences can lack the tags named with a protein.
Biological target: YbeZ-GST (P. aeruginosa YbeZ fused to GST) (Pseudomonas aeruginosa PA14) (UniProt Q9HX38)
Assay: pull-down; GST or YbeZ-GST bound to GST tag purification resin; incubated with PA14 cell lysate containing YbeY-His for 2 h at 4°C; washed three times with lysis buffer (phosphate, 0.3 M NaCl, pH 8.0); eluted with 60 mM reduced glutathione; Western blot; only the target purified

Chains of the proteins cited; added tags and fusions are not shown. Lines headed by an entry give the natural chain unless they say otherwise; changes in a name come on top.
UniProt Q9HX38: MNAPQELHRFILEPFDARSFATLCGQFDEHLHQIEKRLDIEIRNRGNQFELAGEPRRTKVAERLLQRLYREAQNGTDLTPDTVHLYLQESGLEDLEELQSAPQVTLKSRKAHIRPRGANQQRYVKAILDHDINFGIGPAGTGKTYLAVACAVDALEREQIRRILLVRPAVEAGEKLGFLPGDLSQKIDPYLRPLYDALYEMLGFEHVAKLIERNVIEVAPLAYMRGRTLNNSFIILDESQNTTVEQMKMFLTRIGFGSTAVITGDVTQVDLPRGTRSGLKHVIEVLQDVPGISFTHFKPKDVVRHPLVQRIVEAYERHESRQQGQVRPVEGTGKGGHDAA

B1: YbeY-His (C-terminal 6×His-tagged P. aeruginosa endoribonuclease YbeY) (enzyme, UniProt Q9HX37 1-160)
chain: MPLELDLQVASAAPDLPSEAQFRAWCELALRQRPESELTIRLVDEAEGLELNSTYRHKDYATNVLSFPADVPDELLDIPLLGDLVICAPVVAREALEQRKPLQAHWAHLVIHGCLHLLGYDHIDDAEAEEMETLERELLAELGHPDPYACDDEEPPSKEK
binding: binds
